In all, about 33,000 sequences were measured (“E-score (-0.5 to 0.5)”: median about -0.0034, highest 2% from about 0.25 on). The list shows a part of the results.
Target: T1, Yap3 (UniProt P38749)
T1 sequence: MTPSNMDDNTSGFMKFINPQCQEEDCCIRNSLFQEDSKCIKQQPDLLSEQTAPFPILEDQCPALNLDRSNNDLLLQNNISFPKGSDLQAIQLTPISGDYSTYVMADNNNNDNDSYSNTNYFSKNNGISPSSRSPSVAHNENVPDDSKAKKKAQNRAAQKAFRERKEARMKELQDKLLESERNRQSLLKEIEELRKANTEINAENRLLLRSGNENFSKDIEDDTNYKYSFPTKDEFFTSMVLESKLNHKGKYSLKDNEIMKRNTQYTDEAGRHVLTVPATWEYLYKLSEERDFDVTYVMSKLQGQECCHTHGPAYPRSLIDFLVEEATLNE
Experiment: PBM E-score (8-mer binding enrichment) (E-score (-0.5 to 0.5)); higher = stronger / more preferred TF binding
Conditions: protein concentration: 100 nM; construct: GST-full length
Summary of the method: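 Universal all-10-mer Agilent arrays, double-stranded by primer extension on fresh or once-stripped slides, were probed with about 100-200 nM GST-tagged yeast transcription factors made by PURExpress. Fluorescent anti-GST detected bound protein, and masliner normalised the scans. E-scores from the Universal PBM Analysis Suite were given to each ungapped eight-base word pooled with its reverse complement.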

Compared with GATACGGA, CTACGGAC is lower in “PBM E-score” value: 0.148 for the first, -0.217 for the second.

Compared with GAGCGTTA, GCAAGCCA is lower in “PBM E-score” value: -0.0322 for the first, -0.148 for the second.

First: GAATATGC
Second: TAAGATCA
The “PBM E-score” value of the first is lower: 0.039 for the first, 0.0665 for the second.

Compared with AGTTGTAT, ATTACGGG is lower in “PBM E-score” value: 0.103 for the first, 0.0809 for the second.

Compared with ACCCCGCA, AGAGTACA is lower in “PBM E-score” value: -0.0321 for the first, -0.0359 for the second.

First: CCTGTTGA
Second: AGACACCA
The “PBM E-score” value of the first is lower: 0.0279 for the first, 0.0323 for the second.

Compared with TCGACCCA, ATGCATGC is higher in “PBM E-score” value: -0.083 for the first, 0.0181 for the second.

Going from AACGGAAC to GACTTGCA, the “PBM E-score” value falls from 0.155 to -0.00365.

First: AGCAATAA
Second: AGGCAAAT
The “PBM E-score” value of the first is lower: 0.0192 for the first, 0.128 for the second.

Going from AAAAACAG to ATTCAAAT, the “PBM E-score” value rises from 0.00478 to 0.171.

Compared with CTCGCTAA, AGATCGCT is lower in “PBM E-score” value: 0.0462 for the first, -0.0566 for the second.

Compared with GCGACGAC, AGAGTGGA is higher in “PBM E-score” value: -0.21 for the first, -0.105 for the second.

Going from GAACGCGC to ACCACAAT, the “PBM E-score” value falls from 0.131 to -0.0179.

Going from CCATAGAG to GAGACCTA, the “PBM E-score” value rises from -0.1 to -0.0668.

First: GCCGTTCA
Second: CCACTAGC
The “PBM E-score” value of the first is higher: -0.0133 for the first, -0.158 for the second.

First: AATTCATG
Second: CCACAAGG
The “PBM E-score” value of the first is higher: 0.17 for the first, -0.103 for the second.

First: GCGGATCC
Second: ACTCACAA
The “PBM E-score” value of the first is lower: -0.106 for the first, 0.125 for the second.

Compared with AGGTGAAA, CACCGATC is lower in “PBM E-score” value: 0.132 for the first, 0.0686 for the second.

First: CAATGCCC
Second: ACGAGTTC
The “PBM E-score” value of the first is lower: -0.0495 for the first, 0.129 for the second.

Going from CTACCTTC to AGACGGTG, the “PBM E-score” value falls from 0.0321 to -0.182.

Compared with CAGCAATG, CAAGACAG is lower in “PBM E-score” value: -0.12 for the first, -0.164 for the second.

Going from GGCCAACA to ACACAGAT, the “PBM E-score” value falls from 0.0741 to -0.0398.

Compared with CCCAGCGA, CTACTAAC is higher in “PBM E-score” value: -0.125 for the first, 0.204 for the second.

Compared with ATGGGGAC, ACCTCTCA is higher in “PBM E-score” value: -0.0269 for the first, -0.0116 for the second.

Going from GCCGCCGC to ATGCCGAC, the “PBM E-score” value rises from -0.154 to 0.00742.

Compared with CTCATCGA, AAAGCAGC is higher in “PBM E-score” value: 0.0406 for the first, 0.0963 for the second.

Going from ACTACCCG to CATGATTA, the “PBM E-score” value rises from -0.0183 to 0.28.

Going from AACGCCAC to CAAAGACG, the “PBM E-score” value rises from -0.0135 to 0.0173.

First: CAGGCGTC
Second: ACTGACAG
The “PBM E-score” value of the first is lower: -0.186 for the first, 0.143 for the second.

Going from ATGAACAG to AAGCTAGC, the “PBM E-score” value rises from -0.0211 to -0.00358.

Going from ATGCCGTG to AGGCTGAC, the “PBM E-score” value falls from -0.0106 to -0.0394.

Compared with CCATAATC, GTTATTTA is higher in “PBM E-score” value: 0.144 for the first, 0.165 for the second.

Going from AGCTTAGC to AAAGCTGA, the “PBM E-score” value falls from -0.0905 to -0.125.

Compared with AGGTTTCC, CAATCGAC is higher in “PBM E-score” value: -0.0838 for the first, 0.00283 for the second.

Going from ACGAGAGT to AGCGTTAG, the “PBM E-score” value falls from 0.0438 to -0.0215.

Going from CCCTTAGG to GTGAAAAA, the “PBM E-score” value rises from -0.237 to 0.201.

Going from CTCCTCCA to AGAGGAAC, the “PBM E-score” value rises from -0.187 to 0.0284.

Compared with ATGAATAG, AGAGTGCG is lower in “PBM E-score” value: 0.153 for the first, 0.0438 for the second.

Compared with AGATCTAA, GCCCGTAA is lower in “PBM E-score” value: 0.0587 for the first, -0.0469 for the second.

Compared with GGAATAGA, CAGAGAAG is lower in “PBM E-score” value: 0.139 for the first, -0.127 for the second.

Going from CGACCGAA to GAAGTTGA, the “PBM E-score” value rises from -0.0478 to 0.0285.

Compared with AAGGGTAT, TCTCAACA is lower in “PBM E-score” value: 0.115 for the first, 0.11 for the second.

Compared with GAACTCGC, TCATTGCA is lower in “PBM E-score” value: 0.0628 for the first, 0.00796 for the second.

Compared with AGAGTAAT, ACTTCCAG is lower in “PBM E-score” value: 0.203 for the first, -0.115 for the second.

First: AGTAGCCG
Second: AGAACGTA
The “PBM E-score” value of the first is higher: 0.117 for the first, -0.0166 for the second.

Going from AATTAGCG to CCCGCGCC, the “PBM E-score” value falls from 0.2 to -0.253.

Going from ACCGCTGG to CGCCCAAC, the “PBM E-score” value rises from -0.16 to -0.0468.

Compared with CAATGCGA, AGGGACAG is lower in “PBM E-score” value: 0.0204 for the first, -0.189 for the second.

First: CCACCCCG
Second: CCTCAAAC
The “PBM E-score” value of the first is lower: -0.167 for the first, 0.0235 for the second.

First: GAAGAGGA
Second: ACTCTTCT
The “PBM E-score” value of the first is lower: -0.175 for the first, -0.0255 for the second.

Going from AGGTCCGA to CTAGCTCC, the “PBM E-score” value falls from -0.023 to -0.13.

Going from AACAATGA to CCCTCCCC, the “PBM E-score” value falls from 0.124 to -0.043.

First: ATTCTAAG
Second: AATGTCTC
The “PBM E-score” value of the first is higher: 0.083 for the first, 0.00289 for the second.

Compared with ATGCCGCA, ACCTGGAA is higher in “PBM E-score” value: 0.00572 for the first, 0.18 for the second.

Going from CATTCCCA to GAGATTGA, the “PBM E-score” value falls from 0.0633 to 0.0384.

Compared with ACCATAAG, ATATCTGA is higher in “PBM E-score” value: -0.0758 for the first, 0.122 for the second.

Going from AGACGACA to GAATATTA, the “PBM E-score” value rises from 0.149 to 0.263.

First: GGGCGTAC
Second: TTACCTAA
The “PBM E-score” value of the first is lower: -0.0274 for the first, 0.281 for the second.

Compared with GTTGAAGA, CTGCGGTA is lower in “PBM E-score” value: 0.0575 for the first, -0.0714 for the second.

Compared with ACCATTTA, CCAATGCG is lower in “PBM E-score” value: 0.075 for the first, -0.0417 for the second.

Going from GACCAAGA to CAGACGTA, the “PBM E-score” value falls from 0.0919 to -0.172.

Compared with CAGGGATA, TTCACAAA is higher in “PBM E-score” value: 0.00466 for the first, 0.0913 for the second.

First: CGCACGTA
Second: ACGCCCCC
The “PBM E-score” value of the first is higher: -0.0271 for the first, -0.256 for the second.

Going from CCCAGCTA to GCTCATCC, the “PBM E-score” value rises from -0.141 to -0.107.

Compared with AAACCGCC, AGTGCCTC is lower in “PBM E-score” value: -0.0396 for the first, -0.229 for the second.

Compared with GAGAACTC, AAACGCAC is higher in “PBM E-score” value: -0.0476 for the first, 0.0419 for the second.

First: ATCGTACG
Second: AACAGCCC
The “PBM E-score” value of the first is higher: 0.107 for the first, -0.115 for the second.

Compared with CGCGATAG, ATCTATGC is higher in “PBM E-score” value: 0.105 for the first, 0.108 for the second.

First: TCTCGTCA
Second: CCGACTAA
The “PBM E-score” value of the first is higher: 0.0984 for the first, -0.0236 for the second.

Compared with GATCTCAC, AAGATCAA is higher in “PBM E-score” value: -0.00137 for the first, 0.0574 for the second.

First: GACACTAA
Second: CTCCGCGC
The “PBM E-score” value of the first is higher: 0.064 for the first, -0.114 for the second.

Compared with AGGGTCTC, CTGCATGC is higher in “PBM E-score” value: -0.16 for the first, 0.0391 for the second.

Going from AATAGCCA to AATTAATC, the “PBM E-score” value rises from 0.0509 to 0.0963.

First: GTTGCAAA
Second: AAGGGATG
The “PBM E-score” value of the first is higher: 0.129 for the first, 0.0144 for the second.

First: CGCTGCTA
Second: TCCACCGA
The “PBM E-score” value of the first is higher: -0.0611 for the first, -0.105 for the second.

Going from ACGTCCAA to GTTGGTAA, the “PBM E-score” value rises from 0.129 to 0.149.

First: GAGGCAAC
Second: ACGATTCG
The “PBM E-score” value of the first is lower: -0.208 for the first, 0.0411 for the second.

Going from GGCTTAAC to ATGAGCGG, the “PBM E-score” value falls from 0.149 to -0.058.

First: CGTGGAGA
Second: CAATGGGC
The “PBM E-score” value of the first is higher: 0.00966 for the first, -0.0644 for the second.

First: CCCCTCGA
Second: CCCAGGTA
The “PBM E-score” value of the first is higher: -0.131 for the first, -0.154 for the second.

Compared with TCTGGAAA, AGAGAGTA is higher in “PBM E-score” value: 0.0221 for the first, 0.0894 for the second.

First: GCTTATAC
Second: ATCAGACG
The “PBM E-score” value of the first is higher: 0.0794 for the first, -0.142 for the second.

Going from ACTGCGGG to CCCAATAA, the “PBM E-score” value rises from -0.169 to 0.0295.

First: ACGAGGGG
Second: GCGTTGAC
The “PBM E-score” value of the first is lower: -0.309 for the first, -0.0443 for the second.

First: AGAATAGC
Second: TGGAGCAA
The “PBM E-score” value of the first is higher: 0.0507 for the first, 0.0378 for the second.

First: ATCCTCGG
Second: AGTCGTAC
The “PBM E-score” value of the first is higher: 0.134 for the first, -0.098 for the second.

Source: the supplement of paper PMC3334620
